# In patent US20100172991A1, “Extended Release Formulation and Methods of Treating Adrenergic Dysregulation” (priority 2007, published 2010):
# Test system: systolic and diastolic blood pressure
# Settings: sigmoidal Emax model, Day 25 exposure
# Method: Mean baseline ABPM data for the three treatment groups were compared with mean data obtained on Day 26 (last day of treatment) and on Days 27 and 28. A more detailed PK/PD analysis was conducted by using the individual patient ABPM data to compare the blood pressure profile at Baseline and on Day 26 of treatment. The daytime (0- to 12-hour) intervals were used in the analysis, since pharmacokinetic data were collected on Day 25, over the daytime 12-hour dosing interval at steady state. In order to investigate the maintenance of effect at the tail end of the inter-dosing interval, differences between the SBP, DBP, and HR values at Baseline and the last two hours in the inter-dosing interval (Hours 11 and 12) on Day 26 were calculated for each patient. Paired t-tests were performed to test the significance of these differences between Baseline and the last two measuring times. The approach taken to quantify the effects of clonidine on blood pressure was to calculate the difference between the areas under the BP vs. time curves (AUCBP) at Baseline and on Day 26. These values were used to relate the pharmacodynamic effect to dose, as well as to conduct the PK/PD analyses.
# Pharmacokinetic-pharmacodynamic modeling was conducted using the blood pressure response data and the Cmax, Cmin and AUCτ values at Day 25 of dosing. […] The data in Table 8 summarize the PK/PD parameters from the sigmoidal Emax model.
smiles,measurement,value
"Clc1cccc(Cl)c1NC1=NCCN1 [clonidine, 2,6-dichloro-N-2-imidazolidinylidene benzeneamine]","Shape Factor (γ), Diastolic BP vs AUCτ",7.42
same,"Shape Factor (γ), Diastolic BP vs Cmax",8.29
same,"Shape Factor (γ), Diastolic BP vs Cmin",7.31
same,"Shape Factor (γ), Systolic BP vs AUCτ",6.26
same,"Shape Factor (γ), Systolic BP vs Cmax",6.39
same,"Shape Factor (γ), Systolic BP vs Cmin",5.56
